PubChem BioAssay AID2685 (National Center for Advancing Translational Sciences (NCATS), 2010)
Out of some 320,000 compounds screened, about 2,100 (0.66%) were called active. Inconclusive results, whose numbers are uncertain, are shown with a selection of clear calls. Calls follow the shape of the dose curve; as a rule, active = well fitted inhibition curve with a large enough effect in the signal ratio, with a control signal flat (not every such curve was filed as active); inconclusive = small, poorly fitted or top-dose-only effect, or effect the other way, or a change in a side signal; inactive = flat fitted curve, though single readings scatter; the % refers to the signal ratio. Where the call is inconclusive, the potency comes from a doubtful curve fit.
% is scaled to controls: 0 for no effect and ±100 for the full control effect; potency is read from the fitted curve at half-maximal effect.

Experiment: qHTS Assay for Lipid Storage Modulators in Drosophila S3 Cells
Details: BODIPY lipid droplet fluorescence, 18-24 h, cells fed with added oleic acid; lipid storage change, negative = inhibition: at 46.1 µM (top of the series) unless noted
Method in brief: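 Laser-scanning cytometry quantifies lipid droplet accumulation (500–530 nm total intensity; droplet/cell object ratio) in oleic acid-fed (400 uM added) Drosophila S3 cells treated with a concentration series. 20 uM Triacsin C defined 100% inhibition.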
In the case of `COc1ccccc1OCc1nnc(SCC(=O)N2CCCC2)o1`, the lipid storage change, negative = inhibition is reported as inconclusive: 71.1%. In the case of `COc1ccc(COc2ccsc2C(=O)Nc2ccc(Cl)c(Cl)c2)cc1`, the lipid storage change, negative = inhibition is reported as inconclusive: 13.3%. With `CCN(CC)C(=O)COC(=O)c1ccc(O)cc1` the Potency was active: 20.6 µM. In the case of `Cc1noc(C)c1-c1ccc2ncnc(NCC3CCCCN3C)c2c1` (stereo unspecified), the lipid storage change, negative = inhibition is reported as inconclusive: -18.2%. With `O=C(CCNS(=O)(=O)c1ccccc1)N1CCCC1` the Potency was inconclusive: 32.6 µM [activator, single point]. In the case of `O=C(COC(=O)Cc1ccc(F)cc1)NC1CCCCC1`, the lipid storage change, negative = inhibition is reported as inconclusive: -6.16%. For `COc1ccc(-c2cc(=O)oc3cc(OC(=O)C4CCCCC4)ccc23)cc1`, the lipid storage change, negative = inhibition was inconclusive: -9.78%. With `COc1ccc(F)cc1S(=O)(=O)n1cc(C)nc1-c1ccccc1` the lipid storage change, negative = inhibition was inconclusive: -12.3%. With `Cc1ccc(-c2nnc(SCC(=O)N/N=C/c3ccc(C(=O)O)cc3)n2C2CCCCC2)cc1` the Potency was inconclusive: 0.0065 µM [activator, full curve, poor fit]. With `Cc1ccc(S(=O)(=O)NC(C)(C)CSc2ncccn2)cc1` the lipid storage change, negative = inhibition was inconclusive: -6.22%. For `Cc1nc2ccc(NS(=O)(=O)c3ccccc3Cl)cc2s1`, the lipid storage change, negative = inhibition was inconclusive: 28.7%. With `C/C=C/c1ccc(OCCCCN(C)Cc2ccccc2)c(OC)c1` the lipid storage change, negative = inhibition was inconclusive: -33.9%. In the case of `CSc1ccc(CN2CCN(C(=O)CC(C)C)CC2)cc1`, the lipid storage change, negative = inhibition is reported as inconclusive: 13.3%. With `CC(C)c1ccc(/C=N/NC(=O)CCNC(=O)c2ccccc2)cc1` the Potency was inconclusive: 0.92 µM [falling, full curve]. For `CCOC(=O)Cn1c(=O)oc2cc(S(=O)(=O)NC3CCCCC3)ccc21`, the lipid storage change, negative = inhibition was inconclusive: 34.4%. In the case of `O=S(=O)(c1cccs1)N1CCN(CCOc2ccccc2)CC1`, the lipid storage change, negative = inhibition is reported as “inconclusive”. In the case of `Cc1cc2nc(SCC(=O)N(C)C)c3c(c2cc1C)CCCC3`, the lipid storage change, negative = inhibition is reported as “inactive”. For `O=C(Nc1ccccc1C(=O)Nc1cccnc1)c1ccccc1`, the Potency was inconclusive: 0.259 µM [rising, full curve, poor fit]. With `CCCn1c(N)cc(=O)n(C)c1=O` the lipid storage change, negative = inhibition was inconclusive: 74.2%. With `CC(=O)N1CCN(CCS(=O)(=O)c2ccc(Br)cc2)CC1` the lipid storage change, negative = inhibition was inconclusive: 1.52%. With `O=C(O)c1cc(S(=O)(=O)N2CCCCCC2)c(Cl)cc1Cl` the lipid storage change, negative = inhibition was inconclusive: -2.44%. For `CCC(C)NC(=O)CCn1c(-c2ccc(F)cc2)cc(C(C)=O)c1C` (stereo unspecified), the lipid storage change, negative = inhibition was inconclusive: 12.3%. In the case of `N#Cc1c(C(F)(F)F)cc(=O)n2c1[nH]c1ccccc12`, the Potency is reported as inconclusive: 0.58 µM [activator, single point]. In the case of `CC1(C)NC(=O)N(CC(=O)NNC(=O)c2ccccc2F)C1=O`, the Potency is reported as inconclusive: 0.146 µM [cytotoxic, full curve, poor fit]. For `CC(SCc1ccccc1)C(=O)NC1CCCC1` (stereo unspecified), the lipid storage change, negative = inhibition was inconclusive: -66.1%. For `O=C(c1ccc(Oc2ccccc2)cc1)C1CCCN(C(=O)c2cnccn2)C1` (stereo unspecified), the lipid storage change, negative = inhibition was inconclusive: -29.1%. For `CC(C)CCN1CCN(Cc2ccc(C(F)(F)F)cc2)CC1CCO` (stereo unspecified), the Potency was inconclusive: 18.4 µM [activator, single point]. With `COc1ccc(NC(=O)COc2cc(C)cc(C)c2)cc1S(=O)(=O)N1CCCCC1` the lipid storage change, negative = inhibition was inconclusive: 22.9%. For `CN(C)C=NC(=O)c1cc(C(=O)c2ccc(C(C)(C)C)cc2)c[nH]1`, the lipid storage change, negative = inhibition was inconclusive: 6.3%. For `Cc1ccc2[nH]c3c(c2c1)CCCC3NC(=O)CCl` (stereo unspecified), the lipid storage change, negative = inhibition was inconclusive: -36.6%. In the case of `CCOCCCNC(=O)Cn1cnc2c(cnn2-c2ccc(F)cc2)c1=O`, the lipid storage change, negative = inhibition is reported as inconclusive: 5.2%. With `Cc1cccc(NC(=O)CC23CC4CC(C2)CC(n2nnc(C)n2)(C4)C3)c1` the lipid storage change, negative = inhibition was inconclusive: -23.3%. In the case of `Fc1ccc(Br)cc1C1C=C(c2ccc(Br)s2)Nc2ncnn21` (stereo unspecified), the Potency is reported as inconclusive: 0.82 µM [rising, full curve]. With `Cn1c(CNC(=O)CCNC(=O)c2ccc(Br)cc2)cc(=O)n(C)c1=O` the lipid storage change, negative = inhibition was inconclusive: 11.9%. With `Cc1ccccc1Nc1ncnc2c1cnn2Cc1ccccc1` the lipid storage change, negative = inhibition was inconclusive: -15.4%. With `CC1=NN(c2cccc(Cl)c2)C(=O)C12CC(C)=C(C)CS2` (stereo unspecified) the Potency was inconclusive: 3.26 µM [rising, single point]. With `c1ccc(-c2nc[nH]c2-c2ccccc2)cc1` the lipid storage change, negative = inhibition was inconclusive: 11.4%. With `COc1ccc(C)cc1-n1nnnc1SCc1nc2ccccc2s1` the Potency was inconclusive: 20.6 µM [falling, single point]. For `O=C(CSc1nnnn1C1CCCCC1)Nc1ccc(F)cc1`, the lipid storage change, negative = inhibition was “inactive”. In the case of `O=C(NCCc1c[nH]c2ccccc12)c1ccc(S(=O)(=O)NCc2ccco2)cc1`, the lipid storage change, negative = inhibition is reported as inconclusive: 0.631%. With `O=C(Nc1cccc(C(F)(F)F)c1)c1cc2c(s1)-c1ccccc1OC2` the Potency was inconclusive: 29.1 µM [falling, single point].
